Measurements taken from PubChem BioAssay AID1508600 (Functional Genomics Laboratory (NCATS/FGL), 2020).
The whole screen tested about 53,000 sequences, of which about 3,700 (7%) were called active.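 Rule for the calls: active = gene knockdowns whose robust z-score for IL-1 alpha signal is at least 2 or at most -2, so actives lie on both sides; inactive = the rest.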 The list shows a part of the results.

Test: Components of the Cytosolic LPS Sensing Pathway: Gene Identification via Genome-wide siRNA Screen;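 note: robust z of the log signal after scaling to non-targeting control siRNA wells of the plate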
Conditions: RAW264.7 macrophages, IL-1a HTRF, actives lie on both sides, screened at 100 nM (by protocol), cells primed 5 h with Pam3CSK4 first
How it was run: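 Mouse macrophage line RAW264.7 is transfected with siRNA (100 nM final), grown 48h, primed with TLR ligand Pam3CSK4 5 h and given intracellular LipidA 24 h. IL-1a in supernatant is read by HTRF and viability by luminescence.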

Row | Sequence | z-score
1 | CCUGCUCUUCCGAUGCUCATT against Chkb | inactive: 0.87
2 | GGACGUAUCCAUCACUGUUTT against Scn3b | inactive: -0.897
3 | GUACCUCAUUUUUAGCACATT against Vmn1r18 | inactive: 0.629
4 | GGGAGCUUCCAUGUUGACATT against Uqcr11 | inactive: 0.13
5 | GGUCUACAUUCGGAUAAAATT against Snx29 | inactive: 0.469
6 | CGUUCCGAAGCAACAUCGUTT against Slc9a4 | inactive: 0.319
7 | GGUUUCACCAGCCAAUGUCTT against Ltk | inactive: 0.439
8 | GGAAAUAAGAGAGAGUACATT against Pcbp2 | inactive: -0.694
9 | GGAAAAAGCGGAAAUUCAGTT against Pgbd5 | inactive: -0.276
10 | GGAAAAGGUAGGGACCUAUTT against Cramp1l | inactive: -1.13
11 | GCAGCAUGUUCGUCUUUGGTT against Lztr1 | inactive: -1.77
12 | CGUGUACGUCAUGGUAUUUTT against Map2k1 | inactive: 0.232
13 | GGAUUGUUCGAGCUAAAAATT against Tnfsf10 | inactive: 1.45
14 | GGAAUUAGACAUUCGAACATT against Rnf20 | inactive: 0.0635
15 | GGUAGCAUUAUGGGUGAGGTT against Pik3ip1 | inactive: -0.0677
16 | CCUAUGUGCGUUCCAAGCATT against Eif5b | inactive: -0.432
17 | GCUCGAUUGACCUCAUUCATT against Rhbdf2 | active: -2.45
18 | GGCCACUAGUAAGAAGAAATT against Usp19 | inactive: 1.53
19 | GGAAAUACGAAAAGUUGUATT against Tsn | inactive: -0.928
20 | GGCCACGUUUCUCUUCACCTT against Nyx | inactive: -1.12
21 | GGAGUUGCUUAUCUAUGAATT against Cpsf1 | inactive: -0.138
22 | CCUAACACCAGUUGUGUUUTT against Pbx2 | inactive: 0.25

Six entries from above in another layout.
Row,Sequence,z-score
14,GGAAUUAGACAUUCGAACATT against Rnf20,inactive: 0.0635
15,GGUAGCAUUAUGGGUGAGGTT against Pik3ip1,inactive: -0.0677
16,CCUAUGUGCGUUCCAAGCATT against Eif5b,inactive: -0.432
17,GCUCGAUUGACCUCAUUCATT against Rhbdf2,active: -2.45
18,GGCCACUAGUAAGAAGAAATT against Usp19,inactive: 1.53
19,GGAAAUACGAAAAGUUGUATT against Tsn,inactive: -0.928

The results go on.

Row | Sequence | z-score
23 | CCAGGAGUACAAACACUAUTT against Stap1 | inactive: 0.493
24 | GGCCAAAACCUAUGAAUUCTT against Cbx8 | inactive: -0.293
25 | GACUCUGUGGGUUCAAAAATT against Antkmt | inactive: -0.237
26 | GGAUGGUAGAGUCUCUUAUTT against Olfr414 | inactive: 1.64
27 | GGAAGUCUCGAUAUCAUUCTT against Cd300lg | inactive: 0.565
28 | GGAUCUCGAAAGAACUGAUTT against Hoatz | inactive: -1.49
29 | CCUACAGCCACCUAAUAGATT against Olfr1196 | inactive: -0.346
30 | GGACCAGUUUAUCCAGCACTT against Mc3r | inactive: -0.699
31 | GCUAGAAUCAUGGCAAAUATT against 9530002B09Rik | inactive: -1.3
32 | GGUGGUUUAUGAAAUACCATT against Napepld | inactive: 0.916
33 | GGUAUCACGAGCAUUCUCATT against Rrh | inactive: -0.845
34 | GCACUUUCAGCGGUCUCAUTT against Card14 | inactive: -0.789
35 | CCGUAGACCCGGUUUAUGATT against Pxylp1 | inactive: 0.316
36 | GCGCAAGGAAUACAUGGUGTT against Rnasek | inactive: -0.482
37 | GGUAUACGUGGACAACAGCTT against Esr1 | inactive: -0.975
38 | GCUAUACCAGGAGGUAGAUTT against Arhgef40 | inactive: -0.504
39 | CCACGCAAAAGAAUAUAAGTT against Mtss1 | inactive: 0.464
40 | CGCAGAGAUUGUGCGGACUTT against Myg1 | inactive: 0.245
41 | GGGAUUGAAAGAAGAAAAGTT against 1700029P11Rik | inactive: -0.952
42 | GCCUGUCAUUAAUCUGACATT against Kazn | inactive: -1.61
43 | GCAAAAAACUACUUUUACCTT against Chrna1 | inactive: 0.103
44 | GGAUGUUUUUGAACUACAUTT against Brdt | inactive: 1.51

Row | Sequence | z-score
45 | GGUAUGGAAGAAGAAGCGCTT against Phlda2 | inactive: -0.584
46 | CCUAGAGAUGUCAGUACUATT against Tas2r123 | inactive: -0.264
47 | GGGUUCAAAUAGUUUACCUTT against Tmem33 | inactive: 0.156
48 | CCCUAUUUUAACCGUGUUATT against Vrtn | inactive: -1.18
49 | GGUUAUGGCCUGUAUUAGATT against Hsd17b13 | inactive: 1.06
50 | GGUGAAAGACCAAAGAAACTT against Gpatch1 | inactive: -1.12
51 | GGGAUAUUGUUUUUUACAGTT against Tmem50b | inactive: -0.921
52 | GGAUGGAUCGUUUCUUAUUTT against Blnk | inactive: 0.7
53 | GGAUGUGCCUGCCACUAUUTT against Cyp1b1 | inactive: 1.15
54 | CGGCUCACAAAUAUACAGUTT against Pira1 | inactive: -0.12
55 | GGCAAAAUAGAGAAAUACATT against Lima1 | active: 2.37
56 | GCCUGAUCGAUACGUGAUCTT against Naaladl1 | active: 3.35
57 | CCUGAUGCCAGAAUCUAAGTT against Ermap | inactive: 0.618
58 | GCCUGAACUGGCUAGAAAUTT against Psmg2 | inactive: -0.19
59 | GGAGCUUCUCAUGACCUUUTT against Mettl21e | inactive: 0.307
60 | GGAGGAUUCAUGCUUUGUUTT against Morc2b | inactive: 0.238
61 | GCGCUAGAAGGCCAGAUAUTT against Orm3 | inactive: -0.155
62 | CGCACACAGUCGUAUGUACTT against Ryr1 | inactive: -1.21
63 | GGACUAGAAUGUGACCUUGTT against Anks6 | inactive: -1.46
64 | GCCCUGAAAAACAUGCAACTT against Tmco3 | inactive: 0.469
65 | GCUUAUAGUUCAGUUUUUGTT against Ints8 | inactive: 0.835
66 | GGAAACAAUUCAUGAGCAUTT against Ints13 | inactive: 1.49

Row | Sequence | z-score
67 | CCGACUGGGCUCUUUUUACTT against Dbnl | inactive: 0.651
68 | GCUAUACAUCAUGGUAUCCTT against Dlx1 | inactive: -0.632
69 | GCAGGUGCCUUCAAAAACCTT against Pm20d2 | inactive: -0.926
70 | GGGAAAUGGAAAGCAUUCUTT against Olfr374 | inactive: 1.41
71 | GGUUCUGACAGACAAAAUUTT against Luc7l3 | inactive: -0.379
72 | GGAAUGGAAACAGAGUUAUTT against Zfp641 | inactive: 0.342
73 | GGAAAUGAAGGUUGCAAUGTT against Olfr1317 | inactive: 0.523
74 | GGAUCUUAUUACUUCAAUGTT against Slc44a1 | inactive: 0.204
75 | GGGAUGGAGGAGGAGCUUATT against Bad | inactive: 0.86
76 | GCAUCAGAUGCGUUUGCUUTT against Blm | inactive: -0.242
77 | GGUAAAGACAAGAUUAAAGTT against Cyp39a1 | inactive: -0.308
78 | GCCAUAUCGCUAAAAUUCUTT against Hoxa10 | inactive: 0.0376
79 | GGGAAACAUUUGAAAGCCUTT against Mpp4 | inactive: -0.64
80 | GGAAUACAUCGAGUAUCUCTT against Xab2 | inactive: -1.43
81 | GCUAGAGUGACUAUUUUACTT against Acta2 | inactive: 1.56
82 | GGAAACCUAUUUCAUAUAGTT against Pik3cg | inactive: -0.234
83 | GCAAACCUUUGUUCAUUCCTT against Prnp | inactive: 0.0629
84 | GCAUGUCCACGUUAGAAUCTT against Fbxw7 | inactive: -1.08
85 | GCUCAUUGAGUACAAGACCTT against Ndufs2 | inactive: 1.76
86 | CGAUUGGUUGUUGUAGACATT against Abhd11 | active: -2.56
87 | GGACUUCUUAAUGUUUUACTT against Phf11a | inactive: 0.398
88 | CGGUUUACAUUCCUGACUUTT against Plekho2 | inactive: 1.42

Row | Sequence | z-score
89 | GGAAGCUUUGGGAAACAGUTT against Bmp2 | inactive: -0.226
90 | GCACUACGAUGACUUCCUGTT against Poll | inactive: -0.65
91 | UCACAGUGCUUAUCAUUGUTT against Olfr506 | inactive: -1.73
92 | GCUGGUGCAUUACUGAGGUTT against Olfr69 | inactive: 0.434
93 | CCUAAGGAGACACGAAGCCTT against Cfp | inactive: -0.119
94 | GGAAUGACUCUAGAAAUGATT against Zc3h13 | inactive: -0.7
95 | GGUGGUUCCCAUUUCCUUATT against BC004004 | inactive: -0.183
96 | GGAAACUUUGUUAAAACAGTT against Tank | inactive: 0.503
97 | GGCAUUUUCUUAUUCAUUGTT against 4933414I15Rik | inactive: 1.48
98 | CCACUAUGUUCUGUGGCAATT against Olfr736 | active: -2.33
99 | GGUCAAUAUGCAGAAAAUGTT against Eif4g2 | inactive: -1.7
100 | CCAGAUACAUCUACAACCGTT against H2-Ab1 | inactive: -0.9
101 | GGGCAAAUGUAAAAAGACUTT against Fst | inactive: 1.28
102 | GGAGCAGGAUUUUGGCAGUTT against Casp2 | inactive: 0.291
103 | GCUUGUGCUCUAAAUAUGATT against Trim52 | inactive: 0.443
104 | GGAAAUAGUUGGUUUUGAATT against Slfn1 | inactive: -1.95
105 | GGCCUUUGUCCUUGUCUUCTT against Syvn1 | inactive: 0.101
106 | GGAGGACUCUGCUUCCAUATT against Pwwp3b | inactive: -0.848
107 | GGAAAAUUGGUACCAACUUTT against Mtfr1 | inactive: -0.657
